From PMC6497644
These are yes or no findings as the source states them, for the method shown. Some entries that bind do so weakly or less than the wild type.

Molecular target: T1, TMEM33 N term (amino acids 1–24), in frame with LexA (UniProt Q9CR67)
T1 sequence: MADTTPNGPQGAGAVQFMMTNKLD
Experiment: two-hybrid; LexA/B42 Grow'n'Glow system, yeast EGY48; bait TMEM33 terminus in frame with LexA, prey PC2 terminus in frame with B42; growth on -HIS-TRP-URA-LEU + galactose and GFP

B1: PC2 C term (amino acids 677–968), in frame with B42 (domain or fragment, UniProt Q13563 677-968)
chain: LAIINDTYSEVKSDLAQQKAEMELSDLIRKGYHKALVKLKLKKNTVDDISESLRQGGGKLNFDELRQDLKGKGHTDAEIEAIFTKYDQDGDQELTEHEHQQMRDDLEKEREDLDLDHSSLPRPMSSRSFPRSLDDSEEDDDEDSGHSSRRRGSISSGVSYEEFQVLVRRVDRMEHSIGSIVSKIDAVIVKLEIMERAKLKRREVLGRLLDGVAEDERLGRDSEIHREQMERLVREELERWESDDAASQISHGLGTPVGLNGQPRPRSSRPSSSQSTEGMEGAGGNGSSNVHV
binding: binds
